For experiment [1], the target named is human IL-2Rβ (CD122), full-length, on cells (human) (UniProt P14784). Description: flow cytometry on CHO-K1 cells. In general terms: In flow cytometry, cells or beads pass a laser one at a time.
Experiment [2] shares this target. In words: cell-based receptor binding assay (flow cytometry).

Protein sequences, listed by entry. Tags and fused reporters are not part of them. Residues count along the entry.
UniProt P14784, residues 27-551: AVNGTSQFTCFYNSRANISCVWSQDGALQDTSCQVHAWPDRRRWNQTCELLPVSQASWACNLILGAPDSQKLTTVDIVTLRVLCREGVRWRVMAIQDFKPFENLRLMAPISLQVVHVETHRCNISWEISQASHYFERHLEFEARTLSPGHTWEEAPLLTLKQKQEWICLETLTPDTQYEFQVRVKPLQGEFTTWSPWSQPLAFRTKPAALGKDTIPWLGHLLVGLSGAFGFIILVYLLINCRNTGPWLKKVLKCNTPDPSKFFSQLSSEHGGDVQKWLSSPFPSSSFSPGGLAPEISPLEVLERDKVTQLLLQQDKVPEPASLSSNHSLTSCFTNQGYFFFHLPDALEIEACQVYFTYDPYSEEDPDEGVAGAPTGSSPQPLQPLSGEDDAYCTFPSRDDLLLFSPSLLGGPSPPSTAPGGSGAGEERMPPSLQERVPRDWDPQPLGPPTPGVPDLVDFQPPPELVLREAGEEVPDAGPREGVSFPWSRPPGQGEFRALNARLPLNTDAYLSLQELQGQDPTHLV

These are yes or no findings as the source states them, for the method shown. Some binding calls cover weakened binding; strength is not graded here.

This is an account of results in US20260265385A1, “CD122 BINDING AGENTS AND METHOD OF USING SAME” (AnaptysBio, Inc., priority 2022, published 2026).

B1: APE12383 (antibody, V domains shown)
VH: QVQLQQSGAELMKPGASVKISCKSTGYTFSRYWIEWVKQRPGHGLEWIGEILPGSGSINHNEKFQGKATFTADTSSNTVYMQLSSLTSEDSAVYFCTRHYGSFDYWGQGTTLTVSS
VL: EIVMTQSPKFMSTSVGDRVSVTCKASQNVGTDVAWYQQKPGQSPKALIYSASYRYNGVPDRFTGSGSGTDFTLTISNVQSEDLAEYFCHQYSSYPFTFGSGTKLEIKR
For B1, the binding result in experiment [1] and in experiment [2] was “binds” in each case.
